Test results from US20180320217A1, “METHODS FOR SAMPLING AND MEASURING ORAL LAVAGE PROTEINS” (The Procter & Gamble Company, priority 2017, published 2018).

Test system: peptides in gingival brush samples
Assay: Protein and peptide profiling of gingival brush samples (LC-MS/MS), TABLE 23
Format: in vivo, human
Settings: peptide abundance, gingival brush samples; for Mean Cntl Bsl / Mean Cntl Wk3: control regimen; for Mean Cntl Bsl / Mean TrtBsl: baseline; for Mean Cntl Wk3 / Mean TrtWk3: week 3; for Mean TrtBsl / Mean TrtWk3: treatment regimen

B1: CYTB_HUMAN (protein, UniProt P04080 1-98, looked up)
Cystatin-B: MMCGAPSATQPATAETQHIADQVRSQLEEKENKKFPVFKAVSFKSQVVAGTNYFIKVHVGDEDFVHLRVFQSLPHENKPLTLSNYQTNKAKHDELTYF
Question: What does the source list for B1?
Answer: Mean Cntl Bsl: 402767.3; Mean Cntl Wk3: 632435.7; Mean TrtBsl: 350500.9; Mean TrtWk3: 686593.2

B2: DMKN_HUMAN (protein, UniProt Q6E0U4 22-476, looked up)
Dermokine: GPLQSGEESTGTNIGEALGHGLGDALSEGVGKAIGKEAGGAAGSKVSEALGQGTREAVGTGVRQVPGFGVADALGNRVGEAAHALGNTGHEIGRQAEDVIRHGADAVRGSWQGVPGHNGAWETSGGHGIFGSQGGLGGQGQGNPGGLGTPWVHGYPGNSAGSFGMNPQGAPWGQGGNGGPPNFGTNTQGAVAQPGYGSVRASNQNEGCTNPPPSGSGGGSSNSGGGSGSQSGSSGSGSNGDNNNGSSSGGSSSGSSSGGSSGGSSGGSSGNSGGSRGDSGSESSWGSSTGSSSGNHGGSGGGNGHKPGCEKPGNEARGSGESGIQNSETSPGMFNFDTFWKNFKSKLGFINWDAINKNQVPPPSTRALLYFSRLWEDFKQNTPFLNWKAIIEGADASSLQKRAGRDDQNYNYNQHAYPTAYGGKYSVKTPAKGGVSPSSSASRVQPGLLQWVKFW
Question: B2 was tested. Which “Mean Cntl Bsl” value did it give?
Answer: The value was 7330.6.

Question: And the “Mean Cntl Wk3” value?
Answer: The value was 7536.0.

Question: And the “Mean TrtBsl” value?
Answer: The value was 3281.4.

Question: And the “Mean TrtWk3” value?
Answer: The value was 7486.9.

B3: EF1A1_HUMAN (protein, UniProt P68104 2-462, looked up)
Elongation factor 1-alpha 1: GKEKTHINIVVIGHVDSGKSTTTGHLIYKCGGIDKRTIEKFEKEAAEMGKGSFKYAWVLDKLKAERERGITIDISLWKFETSKYYVTIIDAPGHRDFIKNMITGTSQADCAVLIVAAGVGEFEAGISKNGQTREHALLAYTLGVKQLIVGVNKMDSTEPPYSQKRYEEIVKEVSTYIKKIGYNPDTVAFVPISGWNGDNMLEPSANMPWFKGWKVTRKDGNASGTTLLEALDCILPPTRPTDKPLRLPLQDVYKIGGIGTVPVGRVETGVLKPGMVVTFAPVNVTTEVKSVEMHHEALSEALPGDNVGFNVKNVSVKDVRRGNVAGDSKNDPPMEAAGFTAQVIILNHPGQISAGYAPVLDCHTAHIACKFAELKEKIDRRSGKKLEDGPKFLKSGDAAIVDMVPGKPMCVESFSDYPPLGRFAVRDMRQTVAVGVIKAVDKKAAGAGKVTKSAQKAQKAK
Question: With B3 as the molecule, how does the “Mean Cntl Bsl” value read?
Answer: Its value is 946.2.

Question: And the “Mean Cntl Wk3” value?
Answer: Its value is 2257.5.

Question: And the “Mean TrtBsl” value?
Answer: Its value is 873.0.

Question: What about the “Mean TrtWk3” value of the same molecule?
Answer: The value was 2785.9.

B4: ERO1A_HUMAN (protein, UniProt Q96HE7 24-468, looked up)
ERO1-like protein alpha: EEQPPETAAQRCFCQVSGYLDDCTCDVETIDRFNNYRLFPRLQKLLESDYFRYYKVNLKRPCPFWNDISQCGRRDCAVKPCQSDEVPDGIKSASYKYSEEANNLIEECEQAERLGAVDESLSEETQKAVLQWTKHDDSSDNFCEADDIQSPEAEYVDLLLNPERYTGYKGPDAWKIWNVIYEENCFKPQTIKRPLNPLASGQGTSEENTFYSWLEGLCVEKRAFYRLISGLHASINVHLSARYLLQETWLEKKWGHNITEFQQRFDGILTEGEGPRRLKNLYFLYLIELRALSKVLPFFERPDFQLFTGNKIQDEENKMLLLEILHEIKSFPLHFDENSFFAGDKKEAHKLKEDFRLHFRNISRIMDCVGCFKCRLWGKLQTQGLGTALKILFSEKLIANMPESGPSYEFHLTRQEIVSLFNAFGRISTSVKELENFRNLLQNIH
Question: How did the “Mean Cntl Bsl” value turn out when B4 was run?
Answer: Its value is 58705.8.

Question: And the “Mean Cntl Wk3” value?
Answer: The value was 87660.3.

Question: And the “Mean TrtBsl” value?
Answer: The value was 50809.3.

Question: And the “Mean TrtWk3” value?
Answer: Its value is 89111.5.

B5: ECM1_HUMAN (protein, UniProt Q16610 20-540, looked up)
Extracellular matrix protein 1: ASEGGFTATGQRQLRPEHFQEVGYAAPPSPPLSRSLPMDHPDSSQHGPPFEGQSQVQPPPSQEATPLQQEKLLPAQLPAEKEVGPPLPQEAVPLQKELPSLQHPNEQKEGTPAPFGDQSHPEPESWNAAQHCQQDRSQGGWGHRLDGFPPGRPSPDNLNQICLPNRQHVVYGPWNLPQSSYSHLTRQGETLNFLEIGYSRCCHCRSHTNRLECAKLVWEEAMSRFCEAEFSVKTRPHWCCTRQGEARFSCFQEEAPQPHYQLRACPSHQPDISSGLELPFPPGVPTLDNIKNICHLRRFRSVPRNLPATDPLQRELLALIQLEREFQRCCRQGNNHTCTWKAWEDTLDKYCDREYAVKTHHHLCCRHPPSPTRDECFARRAPYPNYDRDILTIDIGRVTPNLMGHLCGNQRVLTKHKHIPGLIHNMTARCCDLPFPEQACCAEEEKLTFINDLCGPRRNIWRDPALCCYLSPGDEQVNCFNINYLRNVALVSGDTENAKGQGEQGSTGGTNISSTSEPKEE
Question: What does the source list for B5?
Answer: Mean Cntl Bsl: 13172.4; Mean Cntl Wk3: 24637.4; Mean TrtBsl: 11406.6; Mean TrtWk3: 24555.1

B6: ALDOA_HUMAN (protein, UniProt P04075 2-364, looked up)
Fructose-bisphosphate …: PYQYPALTPEQKKELSDIAHRIVAPGKGILAADESTGSIAKRLQSIGTENTEENRRFYRQLLLTADDRVNPCIGGVILFHETLYQKADDGRPFPQVIKSKGGVVGIKVDKGVVPLAGTNGETTTQGLDGLSERCAQYKKDGADFAKWRCVLKIGEHTPSALAIMENANVLARYASICQQNGIVPIVEPEILPDGDHDLKRCQYVTEKVLAAVYKALSDHHIYLEGTLLKPNMVTPGHACTQKFSHEEIAMATVTALRRTVPPAVTGITFLSGGQSEEEASINLNAINKCPLLKPWALTFSYGRALQASALKAWGGKKENLKAAQEEYVKRALANSLACQGKYTPSGQAGAAASESLFVSNHAY
Question: For B6, which “Mean Cntl Bsl” value is on record?
Answer: Its value is 48319.3.

Question: What about the “Mean Cntl Wk3” value of the same molecule?
Answer: Its value is 73986.7.

Question: And the “Mean TrtBsl” value?
Answer: Its value is 46120.0.

Question: What about the “Mean TrtWk3” value of the same molecule?
Answer: The value was 95453.7.

B7: GMDS_HUMAN (protein, UniProt O60547 2-372, looked up)
GDP-mannose 4,6 dehydratase: AHAPARCPSARGSGDGEMGKPRNVALITGITGQDGSYLAEFLLEKGYEVHGIVRRSSSFNTGRIEHLYKNPQAHIEGNMKLHYGDLTDSTCLVKIINEVKPTEIYNLGAQSHVKISFDLAEYTADVDGVGTLRLLDAVKTCGLINSVKFYQASTSELYGKVQEIPQKETTPFYPRSPYGAAKLYAYWIVVNFREAYNLFAVNGILFNHESPRRGANFVTRKISRSVAKIYLGQLECFSLGNLDAKRDWGHAKDYVEAMWLMLQNDEPEDFVIATGEVHSVREFVEKSFLHIGKTIVWEGKNENEVGRCKETGKVHVTVDLKYYRPTEVDFLQGDCTKAKQKLNWKPRVAFDELVREMVHADVELMRTNPNA
Question: What does the source list for B7?
Answer: Mean Cntl Bsl: 336.8; Mean Cntl Wk3: 1052.3; Mean TrtBsl: 669.6; Mean TrtWk3: 3459.8

B8: GLU2B_HUMAN (protein, UniProt P14314 15-528, looked up)
Glucosidase 2 subunit beta: VEVKRPRGVSLTNHHFYDESKPFTCLDGSATIPFDQVNDDYCDCKDGSDEPGTAACPNGSFHCTNTGYKPLYIPSNRVNDGVCDCCDGTDEYNSGVICENTCKEKGRKERESLQQMAEVTREGFRLKKILIEDWKKAREEKQKKLIELQAGKKSLEDQVEMLRTVKEEAEKPEREAKEQHQKLWEEQLAAAKAQQEQELAADAFKELDDDMDGTVSVTELQTHPELDTDGDGALSEAEAQALLSGDTQTDATSFYDRVWAAIRDKYRSEALPTDLPAPSAPDLTEPKEEQPPVPSSPTEEEEEEEEEEEEEAEEEEEEEDSEEAPPPLSPPQPASPAEEDKMPPYDEQTQAFIDAAQEARNKFEEAERSLKDMEESIRNLEQEISFDFGPNGEFAYLYSQCYELTTNEYVYRLCPFKLVSQKPKLGGSPTSLGTWGSWIGPDHDKFSAMKYEQGTGCWQGPNRSTTVRLLCGKETMVTSTTEPSRCEYLMELMTPAACPEPPPEAPTEDDHDEL
Question: What does the source list for B8?
Answer: Mean Cntl Bsl: 850.1; Mean Cntl Wk3: 1573.2; Mean TrtBsl: 828.0; Mean TrtWk3: 1472.3

B9: GSTP1_HUMAN (protein, UniProt P09211 2-210, looked up)
Glutathione S-transferase P: PPYTVVYFPVRGRCAALRMLLADQGQSWKEEVVTVETWQEGSLKASCLYGQLPKFQDGDLTLYQSNTILRHLGRTLGLYGKDQQEAALVDMVNDGVEDLRCKYISLIYTNYEAGKDDYVKALPGQLKPFETLLSQNQGGKTFIVGDQISFADYNLLDLLLIHEVLAPGCLDAFPLLSAYVGRLSARPKLKAFLASPEYVNLPINGNGKQ
Question: How did the “Mean Cntl Bsl” value turn out when B9 was run?
Answer: Its value is 2925.0.

Question: What about the “Mean Cntl Wk3” value of the same molecule?
Answer: The value was 7563.2.

Question: And the “Mean TrtBsl” value?
Answer: Its value is 4071.6.

Question: And the “Mean TrtWk3” value?
Answer: The value was 9416.8.

B10: HMGB2_HUMAN (protein, UniProt P26583 1-209, looked up)
High mobility group protein B2: MGKGDPNKPRGKMSSYAFFVQTCREEHKKKHPDSSVNFAEFSKKCSERWKTMSAKEKSKFEDMAKSDKARYDREMKNYVPPKGDKKGKKKDPNAPKRPPSAFFLFCSEHRPKIKSEHPGLSIGDTAKKLGEMWSEQSAKDKQPYEQKAAKLKEKYEKDIAAYRAKGKSEAGKKGPGRPTGSKKKNEPEDEEEEEEEEDEDEEEEDEDEE
Question: B10 was tested. Which “Mean Cntl Bsl” value did it give?
Answer: Its value is 13849.4.

Question: And the “Mean Cntl Wk3” value?
Answer: Its value is 11639.0.

Question: What about the “Mean TrtBsl” value of the same molecule?
Answer: Its value is 19129.2.

Question: What about the “Mean TrtWk3” value of the same molecule?
Answer: The value was 10085.9.

B11: MYSM1_HUMAN (protein, UniProt Q5VVJ2 1-828, looked up)
Deubiquitinase MYSM1: MAAEEADVDIEGDVVAAAGAQPGSGENTASVLQKDHYLDSSWRTENGLIPWTLDNTISEENRAVIEKMLLEEEYYLSKKSQPEKVWLDQKEDDKKYMKSLQKTAKIMVHSPTKPASYSVKWTIEEKELFEQGLAKFGRRWTKISKLIGSRTVLQVKSYARQYFKNKVKCGLDKETPNQKTGHNLQVKNEDKGTKAWTPSCLRGRADPNLNAVKIEKLSDDEEVDITDEVDELSSQTPQKNSSSDLLLDFPNSKMHETNQGEFITSDSQEALFSKSSRGCLQNEKQDETLSSSEITLWTEKQSNGDKKSIELNDQKFNELIKNCNKHDGRGIIVDARQLPSPEPCEIQKNLNDNEMLFHSCQMVEESHEEEELKPPEQEIEIDRNIIQEEEKQAIPEFFEGRQAKTPERYLKIRNYILDQWEICKPKYLNKTSVRPGLKNCGDVNCIGRIHTYLELIGAINFGCEQAVYNRPQTVDKVRIRDRKDAVEAYQLAQRLQSMRTRRRRVRDPWGNWCDAKDLEGQTFEHLSAEELAKRREEEKGRPVKSLKVPRPTKSSFDPFQLIPCNFFSEEKQEPFQVKVASEALLIMDLHAHVSMAEVIGLLGGRYSEVDKVVEVCAAEPCNSLSTGLQCEMDPVSQTQASETLAVRGFSVIGWYHSHPAFDPNPSLRDIDTQAKYQSYFSRGGAKFIGMIVSPYNRNNPLPYSQITCLVISEEISPDGSYRLPYKFEVQQMLEEPQWGLVFEKTRWIIEKYRLSHSSVPMDKIFRRDSDLTCLQKLLECMRKTLSKVTNCFMAEEFLTEIENLFLSNYKSNQENGVTEENCTKELLM
Question: With B11 as the molecule, how does the “Mean Cntl Bsl” value read?
Answer: The value was 46262.7.

Question: What about the “Mean Cntl Wk3” value of the same molecule?
Answer: The value was 20231.4.

Question: What about the “Mean TrtBsl” value of the same molecule?
Answer: The value was 68195.5.

Question: And the “Mean TrtWk3” value?
Answer: Its value is 17889.7.
